Results on three substances are retold here after US20230070752A1.

The chains behind the UniProt entries cited, without tags or fusion partners. Where a name states a change or a piece, a line headed by the entry shows the natural chain unless it says otherwise.
UniProt K9M1U5: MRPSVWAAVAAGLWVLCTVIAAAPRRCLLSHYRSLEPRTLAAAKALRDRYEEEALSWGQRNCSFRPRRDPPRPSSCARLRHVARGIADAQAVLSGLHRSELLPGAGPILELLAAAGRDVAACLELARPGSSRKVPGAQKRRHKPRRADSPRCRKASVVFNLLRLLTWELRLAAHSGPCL

These are yes or no findings as the source states them, for the method shown. Some entries that bind do so weakly or less than the wild type.

The target in the experiment is T1, IFNλR1 (UniProt Q8IU57).
T1 sequence (looked up): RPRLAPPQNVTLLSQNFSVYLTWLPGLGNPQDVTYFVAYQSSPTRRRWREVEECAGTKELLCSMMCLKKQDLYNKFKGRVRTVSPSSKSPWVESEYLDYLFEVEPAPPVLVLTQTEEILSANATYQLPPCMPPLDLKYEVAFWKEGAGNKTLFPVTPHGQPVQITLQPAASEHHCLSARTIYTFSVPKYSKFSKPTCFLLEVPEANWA
Description: BLI (BLItz).
As for “M1 (L28N) IFNλ4 variant (from UniProt K9M1U5 22-179) (ligand)”, the binding entry was “binds”. In the case of “M3 (P73N) IFNλ4 variant (from UniProt K9M1U5 22-179) (ligand)” it was “binds”; in that of “eIFNλ4 (wild-type IFNλ4 produced in E. coli, R&D Systems 9165-IL) (from UniProt K9M1U5 23-179) (ligand)”, “binds”.
